Measured values from PubChem BioAssay AID2517 (National Center for Advancing Translational Sciences (NCATS), 2010).
The campaign covered roughly 350,000 compounds. About 1,200 (0.34%) were called active. This list was built around the results that the source calls inconclusive (neither active nor inactive); the mix of calls is not that of the screen. The call rests on the fitted dose curve; in most records, active means well fitted inhibition curve with a large enough effect; inconclusive means small, poorly fitted or top-dose-only effect; inactive means no such curve, though single readings can be large or run the other way. Potencies beside an inconclusive call are fits to weak or partial responses and may not hold up.

By UniProt entry, the sequences of proteins in these tests, tags left out.
UniProt P27695, whole entry, looked up: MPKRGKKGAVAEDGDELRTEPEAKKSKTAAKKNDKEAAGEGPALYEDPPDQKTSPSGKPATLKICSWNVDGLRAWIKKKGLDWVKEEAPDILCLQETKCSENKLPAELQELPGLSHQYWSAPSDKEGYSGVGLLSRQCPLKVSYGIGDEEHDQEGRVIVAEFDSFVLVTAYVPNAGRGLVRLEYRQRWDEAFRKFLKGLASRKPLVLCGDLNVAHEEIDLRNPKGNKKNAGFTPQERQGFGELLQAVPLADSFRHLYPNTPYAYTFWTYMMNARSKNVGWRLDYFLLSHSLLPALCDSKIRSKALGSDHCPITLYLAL

target: DNA repair nuclease/redox regulator APEX1 (Homo sapiens) (UniProt P27695); assay: qHTS Assay for Inhibitors of the Human Apurinic/apyrimidinic Endonuclease 1 (APE1); conditions: recombinant APE1, TAMRA/BHQ-2 abasic DNA cleavage fluorescence; activity change, negative = inhibition: at 65.8 µM (top of the series); further: nearly all actives have a fitted effect of over 55% in size;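 on activity change, negative = inhibition: plate controls were vehicle for no effect and reference inhibitor for full effect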
Method in brief: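 Endonuclease cleavage of a quenched abasic-site DNA duplex (50 nM) by APE1 (0.75 nM) was tracked by TAMRA dequenching. Compounds were preincubated with enzyme 15 min at room temperature; data normalized to buffer-only and DMSO wells plus NSC13755 control.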
Potency means the concentration at half of the fitted maximal effect.

| SMILES | activity change, negative = inhibition | Potency |
| --- | --- | --- |
| CCC(c1nnnn1C(C)(C)C)N1CCN(Cc2ccccc2OC)CC1 (stereo unspecified) | inactive: -6.38% | – |
| COc1ccc(-c2nc3cc(NC(=O)Cc4ccc(OC)c(OC)c4)ccc3o2)cc1 | – | inconclusive: 31.6 µM [inhibitor, partial curve] |
| O=S(=O)(c1ccccc1)c1cc(O)ccc1O | inactive: -4.58% | – |
| N#CCCn1c(=O)c(-c2ccccc2)nc2cnc(OCc3ccccc3)nc21 | inactive: 0.362% | – |
| COc1ccc(/C=N/NC(=O)c2cccnc2)cc1COc1ccc([N+](=O)[O-])c(C)c1 | inactive: -7.31% | – |
| COc1ccc2nc(/N=C(\N)NC(=O)C(C)(C)C)nc(C)c2c1 | – | inconclusive: 20 µM [inhibitor, single point] |
| Cc1ccc(NC(=O)COc2ccc(/C=N/NC(=O)CSCc3ccccc3)cc2)cc1 | – | inconclusive: 31.6 µM [inhibitor, single point] |
| Cc1cc(C)n(C(=O)CCC(=O)Nc2ccc(C)c(C)c2)n1 | – | inconclusive: 28.2 µM [inhibitor, single point] |
| CS(=O)(=O)N(CC(=O)Nc1cccc([N+](=O)[O-])c1)c1cccc(F)c1 | – | inconclusive: 25.1 µM [inhibitor, single point] |
| COC(=O)c1cc(COc2ccc3c4c(c(=O)oc3c2)CCCC4)c(C)o1 | inactive: -0.168% | – |
| O=C(Nc1cc2c(oc1=O)CCCC2=O)c1ccc(Cl)cc1 | – | inconclusive: 15.8 µM [inhibitor, partial curve] |
| O=C1[C@@H]2[C@H]3[C@H](O)[C@H](O)C/C(=N/OC[C@@H](O)COCc4ccco4)[C@H]3CC[C@H]2C(=O)N1c1ccc(F)cc1F | – | inconclusive: 3.98 µM [inhibitor, single point] |
| C/C(N)=C(/C#N)C(=O)CSc1nc2ccccc2c(=O)n1Cc1ccc(F)cc1 | inactive: -8.92% | – |
| Cc1cccc(NS(=O)(=O)c2cccc3cccnc23)n1 | – | inconclusive: 44.7 µM [inhibitor, single point] |
| Cc1cc2c(c(=O)o1)C(CC(C)C)C(C#N)=C(N)O2 (stereo unspecified) | – | inconclusive: 44.7 µM [inhibitor, single point] |
| CCC(C)(C)n1nnnc1C(C(C)C)N1CCN(C(=O)c2ccco2)CC1 (stereo unspecified) | inactive: 42.3% | – |
| COc1ccc(CCNS(=O)(=O)c2ccc3c(c2)CCN3C(=O)C2CC2)cc1OC | – | inconclusive: 44.7 µM [inhibitor, single point] |
| CCN(CC)CCCNc1nc2cc(OC)c(OC)cc2c2nc(-c3cccnc3)nn12 | – | inconclusive: 11.2 µM [inhibitor, partial curve] |
| COC(=O)C1=C(N)Oc2cc(C)n(Cc3ccco3)c(=O)c2C1c1cccc(Cl)c1 (stereo unspecified) | inactive: 6.49% | – |
| Cc1ccc(C(=O)NCCCN2CCOCC2)o1 | – | inconclusive: 10 µM [inhibitor, single point] |
| CC(C)Oc1ccc(C(CC(=O)N(C)CCC#N)c2ccc(F)cc2)cc1 (stereo unspecified) | – | inconclusive: 7.08 µM [inhibitor, single point] |
| Cc1cc(NC(=O)CSc2nnc(-c3ccncc3)n2C)n(-c2ccccc2)n1 | – | inconclusive: 0.224 µM [inhibitor, full curve] |

Whole records, quoted from the list.
Cc1ccc(NC(=O)COc2ccc(/C=N/NC(=O)CSCc3ccccc3)cc2)cc1 in the list: Potency: inconclusive: 31.6 µM [inhibitor, single point]
COc1ccc2nc(/N=C(\N)NC(=O)C(C)(C)C)nc(C)c2c1 in the list: Potency: inconclusive: 20 µM [inhibitor, single point]

(list continues)

| SMILES | activity change, negative = inhibition | Potency |
| --- | --- | --- |
| CC1O[C@@H](O[C@@H]2C(O)C[C@H](O[C@@H]3C(O)C[C@@H](OC4CC[C@@]5(C)C6CC(O)[C@@]7(C)C(C8=CC(=O)OC8)CC[C@@]7(O)C6CC[C@@H]5C4)OC3C)OC2C)CC(O)[C@H]1O (stereo partly specified) | inactive: 2.25% | – |
| COc1ccccc1CNc1nc(SC)ncc1CO | – | inconclusive: 39.8 µM [inhibitor, single point] |
| O=C(O)CSCC(=O)Nc1ccc(-c2nc3ccccc3s2)cc1 | – | inconclusive: 25.1 µM [inhibitor, single point] |
| CC(=O)Nc1ccccc1C(=O)C(=O)Nc1cccc(Br)c1 | – | inconclusive: 25.1 µM [inhibitor, partial curve] |
| COc1ccc(N2C(=S)NC(C)(C)CC2(C)c2ccc(OC(C)=O)cc2OC(C)=O)cc1 (stereo unspecified) | – | inconclusive: 8.91 µM [inhibitor, single point] |
| Cc1nn(-c2ccccc2)c(C)c1/C=N/NC(=O)c1ccccc1O | inactive: 1% | – |
| Cc1ccsc1CNc1ncnc2ccc(-c3c(C)noc3C)cc12 | – | inconclusive: 14.1 µM [inhibitor, partial curve] |
| CCC(Sc1nnnn1-c1ccccc1)C(=O)Nc1nc2ccccc2s1 (stereo unspecified) | – | inconclusive: 56.2 µM [inhibitor, partial curve, poor fit] |
| Cc1ccccc1NC(=O)/C(C#N)=C\c1cc(C)n(-c2ccc(C(=O)O)cc2)c1C | – | inconclusive: 22.4 µM [inhibitor, partial curve] |
| CCOc1c2ccc(C(=O)NCc3ccc4c(c3)OCO4)cc2nn1C | – | inconclusive: 35.5 µM [inhibitor, partial curve, poor fit] |
| O=[N+]([O-])c1ccc(-c2nnc(CNC3CCCC3)o2)cc1 | – | inconclusive: 22.4 µM [inhibitor, partial curve, poor fit] |
| O=C(N/N=C/c1cc(Br)c(Br)o1)c1cc2ccccc2o1 | – | inconclusive: 23.8 µM [inhibitor, single point] |
| CC(=O)c1ccc(S(=O)(=O)Nc2cccc(-c3ccc4nncn4n3)c2)cc1 | – | inconclusive: 7.08 µM [inhibitor, single point] |
| COc1ccc(OC)c2c(=S)c3ccccc3[nH]c12 | – | inconclusive: 20 µM [inhibitor, partial curve, poor fit] |
| CCc1ccc(NS(=O)(=O)c2ccc3[nH]cc(C(=O)NCC4CCCO4)c(=O)c3c2)cc1 (stereo unspecified) | – | inconclusive: 31.6 µM [inhibitor, single point] |
| O=C(Nc1ccccc1O)c1c(O)c2c([nH]c1=O)CCCC2 | – | inconclusive: 20 µM [inhibitor, single point] |
| Cc1onc(-c2ccccc2)c1C(=O)N/N=C/C=C/c1ccccc1 | – | inconclusive: 50.1 µM [inhibitor, single point] |
| O=C(Nc1cccc(C(=O)O)c1)/C(=C\c1ccco1)NC(=O)c1ccccc1 | inactive: 14.9% | – |
| COc1ccc2[nH]c(=O)c(CN(CCO)C(=O)c3cccs3)cc2c1 | – | inconclusive: 0.0045 µM [inhibitor, full curve, poor fit] |
| COc1ccc2c(c1)[nH]c1c(N3CCN(Cc4ccc5c(c4)OCO5)CC3)ncnc12 | – | inconclusive: 44.7 µM [inhibitor, single point] |
| O=C(COc1ccc2ccccc2c1)N1c2ccccc2Sc2ccccc21 | inactive: -1.8% | – |
| Cc1ccc(C(=O)C(C)Oc2cccc(NC(=O)c3ccco3)c2)cc1 (stereo unspecified) | – | inconclusive: 44.7 µM [inhibitor, single point] |

| SMILES | activity change, negative = inhibition | Potency |
| --- | --- | --- |
| C/C(CCC(=O)OC[C@@H]1O[C@H](C#Cc2ccccc2)C=C[C@@H]1Oc1ccc(C)cc1)=N/O[C@@H](C)c1cc(-c2c(C)cc(C)cc2C)no1 | inactive: 14.7% [at 12.4 µM] | – |
| CCn1c(SCc2nc3sc(C(=O)O)c(C)c3c(=O)[nH]2)nc2ccccc21 | – | active: 20 µM |
| COc1ccc(-c2cc(C(=O)NCc3ccco3)c3ccccc3n2)cc1 | inactive: -1.59% | – |
| CC(=O)N1N=C(c2cccc(Br)c2)OC12CCCC2 | – | inconclusive: 44.7 µM [inhibitor, single point] |
| COC(=O)Cc1cc(=O)n(-c2nc3ccccc3[nH]2)[nH]1 | inactive: -0.272% | – |
| COc1ccc2nc(Nc3nc4cc5c(cc4s3)OCO5)sc2c1 | – | inconclusive: 12.6 µM [inhibitor, partial curve] |
| CC(C)N1CCN(Cc2nc3ccccc3s2)CC1CCO (stereo unspecified) | inactive: -3.68% | – |
| O=C1C(Nc2ccc(O)cc2)=C/C(=N/S(=O)(=O)c2cccs2)c2ccccc21 | – | inconclusive: 35.5 µM [inhibitor, partial curve] |
| Cc1ccc(CNC(=O)c2ccc3c(=O)[nH]c4c(C(=O)NCC5CCCO5)sc(=S)n4c3c2)cc1 (stereo unspecified) | inactive: 15.5% | – |
| Cc1nc2c(sc3nc4c(cc32)COC(C)(C)C4)c(=O)n1CC(=O)NCc1ccco1 | – | inconclusive: 17.8 µM [inhibitor, single point] |
| COc1cc(/C=N/N2C(C)CCCC2C)cc(Br)c1O (stereo unspecified) | inactive: -1.35% | – |
| COc1ccc(S(=O)(=O)N2CCN(C(=O)NC3CCCCC3)CC2)cc1OC | – | inconclusive: 0.708 µM [inhibitor, full curve, poor fit] |
| CCn1cc(S(=O)(=O)CC(=O)Nc2cccc(C)c2)c2ccccc21 | inactive: -1.8% | – |
| Nc1cccc2nc3ccccc3cc12 | – | inconclusive: 28.2 µM [inhibitor, single point] |
| Cc1ccccc1NC1(C#N)C(=O)Nc2ccccc21 (stereo unspecified) | – | inconclusive: 0.447 µM [inhibitor, full curve] |
| CCOC(=O)NC1(NC2CCCCC2)Oc2ccccc2O1 | – | inconclusive: 2.51 µM [inhibitor, full curve] |
| COc1ccccc1NC(=O)COC(=O)c1ccc(S(=O)(=O)NCc2ccco2)cc1 | – | inconclusive: 39.8 µM [inhibitor, partial curve, poor fit] |
| O=C(COC(=O)CNC(=O)c1cccc([N+](=O)[O-])c1)NCc1ccco1 | – | inconclusive: 8.91 µM [inhibitor, partial curve, poor fit] |
| CCOC(=O)/C(=N/Nc1ccccc1)Sc1nnc(CCc2ccccc2)n1-c1ccccc1 | – | inconclusive: 0.0032 µM [inhibitor, full curve, poor fit] |
| Cc1c(O)ccc(/C(Cc2ccc3ccccc3n2)=N\O)c1O | – | inconclusive: 39.8 µM [inhibitor, single point] |
| CCOC(=O)c1ccc(NC2=CC(=O)CC(c3ccco3)C2)cc1 (stereo unspecified) | – | inconclusive: 44.7 µM [inhibitor, single point] |
| O=c1c(-c2c(O)cc(O)c3c(=O)cc(-c4ccc(O)cc4)oc23)c(-c2ccc(O)cc2)oc2cc(O)cc(O)c12 | – | active: 0.794 µM |

3 compounds already listed, arranged by count of non-hydrogen atoms, ascending.

| SMILES | activity change, negative = inhibition | Potency |
| --- | --- | --- |
| COc1cc(/C=N/N2C(C)CCCC2C)cc(Br)c1O (stereo unspecified) | inactive: -1.35% | – |
| COc1ccc2nc(Nc3nc4cc5c(cc4s3)OCO5)sc2c1 | – | inconclusive: 12.6 µM [inhibitor, partial curve] |
| COc1ccc(S(=O)(=O)N2CCN(C(=O)NC3CCCCC3)CC2)cc1OC | – | inconclusive: 0.708 µM [inhibitor, full curve, poor fit] |
